The record followed here is article PMC12501023.

Protein sequences, listed by entry. Tags and fused reporters are not part of them. Residues count along the entry.
UniProt Q9EQY0, residues 21-977: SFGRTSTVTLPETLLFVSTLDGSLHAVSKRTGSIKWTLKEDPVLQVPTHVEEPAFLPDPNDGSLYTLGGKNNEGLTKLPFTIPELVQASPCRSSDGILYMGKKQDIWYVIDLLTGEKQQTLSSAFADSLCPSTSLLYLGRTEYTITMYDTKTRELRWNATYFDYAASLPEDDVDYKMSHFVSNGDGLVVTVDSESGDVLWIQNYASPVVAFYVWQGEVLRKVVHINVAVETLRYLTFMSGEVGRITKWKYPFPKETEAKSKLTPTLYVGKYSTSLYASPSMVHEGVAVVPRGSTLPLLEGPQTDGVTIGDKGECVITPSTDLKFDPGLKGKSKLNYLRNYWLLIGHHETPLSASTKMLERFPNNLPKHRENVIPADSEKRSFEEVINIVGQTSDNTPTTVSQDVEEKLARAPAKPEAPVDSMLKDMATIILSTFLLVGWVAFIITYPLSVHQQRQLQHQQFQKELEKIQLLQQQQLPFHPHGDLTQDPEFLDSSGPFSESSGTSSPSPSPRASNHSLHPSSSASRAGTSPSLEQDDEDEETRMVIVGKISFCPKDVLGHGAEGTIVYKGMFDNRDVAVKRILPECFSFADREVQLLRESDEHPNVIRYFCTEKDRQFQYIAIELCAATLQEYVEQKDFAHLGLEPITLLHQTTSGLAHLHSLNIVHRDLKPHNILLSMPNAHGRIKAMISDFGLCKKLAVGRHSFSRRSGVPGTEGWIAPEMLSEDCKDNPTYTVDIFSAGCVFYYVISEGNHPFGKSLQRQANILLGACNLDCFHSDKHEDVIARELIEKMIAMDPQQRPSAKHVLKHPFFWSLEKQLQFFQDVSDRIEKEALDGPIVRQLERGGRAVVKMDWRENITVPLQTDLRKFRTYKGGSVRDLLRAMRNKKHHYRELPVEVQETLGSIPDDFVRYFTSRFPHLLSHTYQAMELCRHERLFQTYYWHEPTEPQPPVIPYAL

No constants are given. Whether binding was seen depends on the method and setting. Binding seen in cells or lysates may run through a third protein. Some results given as binding are weak or reduced against the parent protein; the word gives no strength. Tags and fused reporters may be left off the sequences shown.

This assay deals with T1, STING-FLAG (UniProt Q3TBT3).
T1 sequence: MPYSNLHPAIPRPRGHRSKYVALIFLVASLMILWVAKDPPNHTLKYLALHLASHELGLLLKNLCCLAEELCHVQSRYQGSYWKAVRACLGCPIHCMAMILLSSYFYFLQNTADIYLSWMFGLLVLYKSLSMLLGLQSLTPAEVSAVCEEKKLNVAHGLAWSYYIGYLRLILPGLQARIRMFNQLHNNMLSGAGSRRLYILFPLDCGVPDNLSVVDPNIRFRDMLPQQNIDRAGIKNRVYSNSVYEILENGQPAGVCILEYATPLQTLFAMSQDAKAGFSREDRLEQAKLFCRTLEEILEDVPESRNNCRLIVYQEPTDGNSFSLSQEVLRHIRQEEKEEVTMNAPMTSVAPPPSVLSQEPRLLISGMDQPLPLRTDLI
Kind of assay: co-IP; immunoprecipitation of exogenous STING-FLAG from HEK293T cells transfected with STING and IRE1α plasmids, control IgG; lysis buffer 150 mM NaCl, 1 mM EDTA, 50 mM Tris-HCl, 0.5% NP-40, 10 mM NEM; antibody overnight at 4°C, Protein A/G PLUS-Agarose, five washes.

Consider “HA-tagged IRE1α (from UniProt Q9EQY0 21-977)”, for which the binding entry is listed as “binds”.
